These are yes or no findings as the source states them, for the method shown. In cells and extracts the contact can be indirect. Some binding calls cover weakened binding; strength is not graded here.

Protein sequences, listed by entry. Tags and fused reporters are not part of them. Residues count along the entry.
UniProt Q9NXA8, residues 37-310: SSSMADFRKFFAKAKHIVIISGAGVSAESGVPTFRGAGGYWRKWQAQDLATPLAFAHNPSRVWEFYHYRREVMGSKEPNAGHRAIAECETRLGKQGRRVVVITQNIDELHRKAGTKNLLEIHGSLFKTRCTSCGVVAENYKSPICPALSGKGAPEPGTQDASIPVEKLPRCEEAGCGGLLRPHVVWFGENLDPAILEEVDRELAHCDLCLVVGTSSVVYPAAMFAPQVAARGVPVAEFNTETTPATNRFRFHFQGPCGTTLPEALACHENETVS

The target of the assay is Flag-SIRT5 (UniProt Q9NXA8). The assay can be described thus: co-IP; 293T cells co-transfected with Flag-SIRT5 and HA-p53; lysate (200 ug protein, IP lysis buffer with protease and phosphatase inhibitors) with anti-Flag or anti-HA antibody at 4 C for 4 h, protein A/G Sepharose beads, Western blot.

On to HA-p53 (from UniProt P04637 1-393), for which the binding result was “binds”.
